{
  "source": "PubChem BioAssay AID1688",
  "about": "(National Center for Advancing Translational Sciences (NCATS), 2009)",
  "note": "In all, about 220,000 compounds went through this assay and about 2,400 (1.1%) were called active. The inconclusive results got no clear call from the source; some entries with a clear call stand among them for comparison. The call rests on the fitted dose curve; in most records, active means well fitted inhibition curve with a large enough effect; inconclusive means small, poorly fitted or top-dose-only effect, or effect the other way; inactive means no such curve, though single readings can be large or run the other way. Potencies beside an inconclusive call are fits to weak or partial responses and may not hold up.",
  "data": [
    {"test": "qHTS Multiplex Assay to Identify Dual Action Probes in a Cell Model of Huntington: Aggregate Formation (GFP); further: nearly all actives have a fitted effect of over 60% in size; further: potency means the concentration at half of the fitted maximal effect; on activity change, negative = inhibition: on the % scale 0 is the no-effect control and ±100 the full control effect", "details": "PC12 HttQ103-GFP aggregates, Acumen cytometry, 40 h; activity change, negative = inhibition: at 46.1 µM (top of the series) unless noted", "method_in_brief": "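PC12/HTTQ103-GFP, ecdysone-inducible; teb 100 nM; cpd qHTS titration; GFP aggregates read on laser cytometer, Ex 488/Em 500-530 nm.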", "values": [
      {"compound": "CC1CC1C(=O)OCc1cc(=O)n2cc(Br)ccc2n1", "note": "(stereo not given)", "Potency": "inactive"},
      {"compound": "Cc1ccnc(NC(=S)NC(=O)/C=C/c2ccc(Cl)cc2)c1", "Potency": "inconclusive: 1.26 µM [activator, single point]"},
      {"compound": "COCCOC(=O)C1=C(C)NC(=S)NC1c1cccs1", "note": "(stereo not given)", "activity change, negative = inhibition": "inactive: 0.831% [at 9.22 µM]"},
      {"compound": "O=C(/C=C/c1ccc([N+](=O)[O-])cc1)NCc1cccnc1", "Potency": "inconclusive: 35.5 µM [activator, single point]"},
      {"compound": "CCOc1ccc(C(C)NC(=S)NC2CCCCC2)cc1", "note": "(stereo not given)", "Potency": "active: 0.562 µM"},
      {"compound": "CC1=C(O)C(=O)OC1c1c(Cl)cccc1Cl", "note": "(stereo not given)", "activity change, negative = inhibition": "inactive: 6.95% [at 9.22 µM]"},
      {"compound": "c1ccc2c(c1)Cn1nnnc1-2", "Potency": "inactive"},
      {"compound": "COC(=O)/C=C1/SC(=NC(=O)c2ccccc2)NC1=O", "Potency": "inconclusive: 3.16 µM [inhibitor, partial curve]"},
      {"compound": "CNC(=O)C1=C(C)n2c(nc3ccccc32)NC1c1ccc(OC)cc1", "note": "(stereo not given)", "Potency": "inactive"},
      {"compound": "CCOC(=O)COc1ccc(Br)cc1/C=C/c1[nH]c(=O)[nH]c(=O)c1[N+](=O)[O-]", "Potency": "inconclusive: 35.5 µM [inhibitor, single point]"},
      {"compound": "O=C(Cn1nnc(-c2ccccc2)n1)N/N=C/c1cccc([N+](=O)[O-])c1O", "Potency": "inconclusive: 35.5 µM [inhibitor, single point]"},
      {"compound": "COc1ccc(CCN(Cc2nc(-c3ccccc3)no2)Cc2nc(-c3ccccc3)no2)cc1OC", "Potency": "inconclusive: 3.55 µM [activator, partial curve, poor fit]"},
      {"compound": "CC(/C=C/c1ccco1)=N/NC(=O)C1COc2ccccc2O1", "note": "(stereo not given)", "activity change, negative = inhibition": "inactive: 4.37% [at 9.22 µM]"},
      {"compound": "CCN(CC)S(=O)(=O)c1ccc2[nH]cc(C(=O)NCCC3=CCCCC3)c(=O)c2c1", "Potency": "active: 10 µM"},
      {"compound": "Cn1cnc([N+](=O)[O-])c1S(=O)(=O)c1ccc(Cl)cc1", "Potency": "inconclusive: 15.8 µM [inhibitor, single point]"},
      {"compound": "CCC(C)NC(=O)C(=O)NCC1CCCN1CC", "note": "(stereo not given)", "Potency": "inconclusive: 35.5 µM [inhibitor, partial curve, poor fit]"},
      {"compound": "CCC(C)(C)n1nnnc1C(c1ccc2ncccc2c1)N1CCN(c2nc3ccccc3s2)CC1", "note": "(stereo not given)", "Potency": "inactive"},
      {"compound": "CCn1nnc(NC(=O)c2ccc(C(C)(C)C)cc2)n1", "Potency": "inconclusive: 14.1 µM [inhibitor, single point]"},
      {"compound": "COC(=O)Cc1nnc(NC(=O)c2ccccc2)s1", "Potency": "inactive"},
      {"compound": "COc1ccc(Cn2c(=O)c3[nH]cnc3n(-c3ccc(C)cc3)c2=O)cc1", "activity change, negative = inhibition": "inactive: -11.1% [at 9.22 µM]"},
      {"compound": "CC(C)CC(=O)NS(=O)(=O)c1ccc(NC(=O)c2ccco2)cc1", "activity change, negative = inhibition": "inactive: 12.4% [at 9.22 µM]"},
      {"compound": "Cc1ccccc1N1CCN(S(=O)(=O)c2ccc3oc(=O)ccc3c2)CC1", "Potency": "active: 10 µM"},
      {"compound": "O=C1NC(c2ccccc2)=C(c2ccc3ccccc3n2)C(c2ccncc2)N1", "note": "(stereo not given)", "Potency": "inconclusive: 35.5 µM [inhibitor, single point]"},
      {"compound": "CC(=O)c1c(C)n(-c2ccccc2)c2ccc(OCC(O)CN3CCOCC3)cc12", "note": "(stereo not given)", "Potency": "inconclusive: 35.5 µM [activator, partial curve]"},
      {"compound": "O=C(Nc1nnc(-c2ccccc2Cl)o1)c1nc2ccccc2s1", "Potency": "inconclusive: 11.2 µM [inhibitor, single point]"},
      {"compound": "O=C(Nc1cc(S(=O)(=O)N2CCOCC2)ccc1O)c1ccc(NS(=O)(=O)c2ccc(Cl)s2)cc1", "Potency": "inconclusive: 12.6 µM [activator, single point]"},
      {"compound": "O=C(Nc1ccon1)c1ccc2c(c1)OCO2", "Potency": "inconclusive: 3.98 µM [inhibitor, single point]"},
      {"compound": "Cc1ccc(N2C(=O)c3cccc4c(N)ccc(c34)C2=O)c2cccnc12", "Potency": "inconclusive: 0.398 µM [inhibitor, partial curve]"},
      {"compound": "Cc1ccc(C)c(N2CCN(C(=O)c3ccc(Cn4c(=O)[nH]c5ccccc5c4=O)cc3)CC2)c1", "Potency": "inconclusive: 12.6 µM [inhibitor, single point]"},
      {"compound": "Cc1ccc(C(C)n2cc(C(=O)NCc3cccnc3)nn2)cc1", "note": "(stereo not given)", "activity change, negative = inhibition": "inactive: -12.9% [at 9.22 µM]"},
      {"compound": "COc1ccc(NC(=O)CN2CCN(c3ccccc3Cl)CC2)cc1", "Potency": "inactive"},
      {"compound": "CC(=O)c1cccc(NC(=O)C(OC(=O)c2ccccc2NS(=O)(=O)c2cccs2)c2ccccc2)c1", "note": "(stereo not given)", "Potency": "inconclusive: 0.562 µM [inhibitor, full curve, poor fit]"},
      {"compound": "O=C(Cn1nc2ccccc2n1)N/N=C/c1cc(Cl)cc([N+](=O)[O-])c1O", "Potency": "inconclusive: 15.8 µM [inhibitor, single point]"},
      {"compound": "COCCCNC(=O)c1ccc2c(c1)OCO2", "Potency": "inactive"},
      {"compound": "O=C(N/N=C1\\CC(c2ccccc2)Oc2ccccc21)c1cccnc1", "note": "(stereo not given)", "Potency": "inconclusive: 14.1 µM [inhibitor, partial curve]"},
      {"compound": "O=C(Nc1cccc(C(F)(F)F)c1)NC1CCN(S(=O)(=O)c2ccc(F)cc2)CC1", "Potency": "inconclusive: 7.08 µM [inhibitor, full curve, poor fit]"},
      {"compound": "O=[N+]([O-])c1ccc(NNC(=S)Nc2ccc(F)cc2)cc1", "Potency": "inconclusive: 20 µM [inhibitor, partial curve]"},
      {"compound": "O=C(CSc1nnc(-c2ccccc2)o1)c1ccc2c(c1)OCCO2", "Potency": "inactive"},
      {"compound": "CCOc1ccccc1NS(=O)(=O)c1cccc2nsnc12", "Potency": "inconclusive: 5.62 µM [inhibitor, full curve]"},
      {"compound": "O=C1C(C=NCCCN2CCCC2=O)=C(O)c2ccccc21", "Potency": "inactive"},
      {"compound": "CCCC1O[C@@H]2CC3C4CCC5=CC(=O)C=C[C@]5(C)C4C(OC(C)=O)C[C@]3(C)[C@]2(C(=O)COC(C)=O)O1", "note": "(stereo not given in full)", "Potency": "inconclusive: 35.5 µM [inhibitor, single point]"},
      {"compound": "O=C(Nc1ccc(S(=O)(=O)N2CCCCC2)cc1)C1CCCN(C(=O)c2ccc(Cl)cc2)C1", "note": "(stereo not given)", "Potency": "inactive"},
      {"compound": "COc1ccccc1NC(=O)c1cc(C(=O)Nc2ccccc2OC)cc(N2C(=O)CCC2=O)c1", "Potency": "inconclusive: 35.5 µM [activator, single point]"},
      {"compound": "Cc1ccc(-c2nn3cnnc3c3ccccc23)cc1C", "Potency": "inconclusive: 3.55 µM [inhibitor, partial curve]"},
      {"compound": "O=c1oc2ccccc2c(Nc2cccc3ccccc23)c1[N+](=O)[O-]", "Potency": "inconclusive: 14.1 µM [inhibitor, single point]"}
    ]}
  ]
}
